In publication PMC10610379, “Epidrugs as Promising Tools to Eliminate Plasmodium falciparum Artemisinin-Resistant and Quiescent Parasites” (Pharmaceutics, 2023) one finds IC50 data, which are given here for 1 molecule.

Assay [1] relates to Plasmodium falciparum F32-ART (artemisinin-resistant strain). The assay is described as follows: Standard chemosensitivity assay (SYBR Green I), F32-ART. The assay is classed as cell-based. The conditions noted are these: 48 h incubation, mean ± SEM of 3 experiments (* mean of 2), read-out: Antiplasmodial Activity: IC50, F32-ART. On the procedure: (§1) They differ by eight mutations in seven genes (PF3D7_0110400, PF3D7_1343700, PF3D7_0213400, PF3D7_1115700, PF3D7_1302100, PF3D7_1459600, PF3D7_1464500) among them the M476I mutation on the kelch13 gene. F32-ART and F32-TEM strains have RSA^0–3 h values up to 12% and less than 0.1%, respectively. […] Both strains were cultured, in the same conditions, according to the Trager and Jensen protocol with modifications. Briefly, parasites were cultivated in RPMI-1640 medium (Biowest) at 2% hematocrit in human red blood cells and 5% human serum (EFS, French Blood Bank) under 5% CO2 in a humid atmosphere at 37 °C.
The antimalarial activities of the compounds were evaluated on both strains. […] Antimalarial activities were determined with the SYBR Green I method. Each drug concentration was tested in triplicate. The parasites were incubated with the drugs for 48 h. Plates were read on a BioTek FLX800 Microplate Fluorescence Reader (Bio-Tek instruments, Winooski, VT, USA) (λexcitation = 485 nm, λemission = 528 nm). Control parasite culture (i.e., RPMI with 0.5% DMSO) was referred to as 100% growth. IC50 and IC90 values were determined using GraphPad Prism version 7.05 (GraphPad Software, San Diego, CA, USA). […] When it is relevant, statistical significance between results obtained with both parasite strains was determined by a Mann–Whitney test using GraphPad Prism version 7.05.

For assay [2], the system named is Plasmodium falciparum F32-TEM (artemisinin-sensitive twin line). The assay is described as follows: Standard chemosensitivity assay (SYBR Green I), F32-TEM. The assay is classed as cell-based. The note with it: 48 h incubation, mean ± SEM of 3 experiments (* mean of 2), read-out: Antiplasmodial Activity: IC50, F32-TEM. On the procedure: as §1, with “F32-ART, an artemisinin-resistant strain, and F32-TEM, its artemisinin-sensitive twin line, were obtained as previously reported. They” for “They”, “°C. […]” for “°C.”
The antimalarial activities of the compounds were evaluated on both strains. […] Antimalarial activities were determined with the SYBR Green I method. […] Plates were read on a BioTek FLX800 Microplate Fluorescence Reader (Bio-Tek instruments, Winooski, VT, USA) (λexcitation = 485 nm, λemission = 528 nm). […] IC50 and IC90 values were determined using GraphPad Prism version 7.05 (GraphPad Software, San Diego, CA, USA). […] When it is relevant, statistical significance between results obtained with both parasite strains was determined by a Mann–Whitney test using GraphPad Prism version 7.05.

For orientation: IC50 means the concentration that inhibits the measured activity by half. Consider `O=C(CCCCCCC(=O)Nc1ccccc1)NO` [SAHA], for which the IC50 in assay [1] stood at 540 ± 55 nM; in assay [2], 390 ± 10 nM.
